The text below walks through data of PMC10119177 (2023).

No constants are given. Whether binding was seen depends on the method and setting. Tags and fused reporters may be left off the sequences shown.

This experiment concerns the target IgI3 domain of R28 (R28-IgI3), wildtype (Streptococcus pyogenes). The experiment is described as follows: flow cytometry of protein-coated Dynabeads; C-terminal biotin tagged R28-IgI3 on streptavidin Dynabeads (3 x 10^5); incubated with rCEACAM at 10 μg/ml; washed in PBS + 0.5% BSA; detected with FITC anti-HIS IgG; both purified.

B1: mouse rCEACAM1-HIS (receptor, UniProt P31809 35-428)
chain: EVTIEAVPPQVAEDNNVLLLVHNLPLALGAFAWYKGNTTAIDKEIARFVPNSNMNFTGQAYSGREIIYSNGSLLFQMITMKDMGVYTLDMTDENYRRTQATVRFHVHPILLKPNITSNNSNPVEGDDSVSLTCDSYTDPDNINYLWSRNGESLSEGDRLKLSEGNRTLTLLNVTRNDTGPYVCETRNPVSVNRSDPFSLNIIYGPDTPIISPSDIYLHPGSNLNLSCHAASNPPAQYFWLINEKPHASSQELFIPNITTNNSGTYTCFVNNSVTGLSRTTVKNITVLEPVTQPFLQVTNTTVKELDSVTLTCLSNDIGANIQWLFNSQSLQLTERMTLSQNNSILRIDPIKREDAGEYQCEISNPVSVRRSNSIKLDIIFDPTQGGLSDGAIAG
B1: the binding entry was “no binding”.
